The values that follow come from the supplement of paper PMC10849652.

By UniProt entry, the sequences of proteins in these tests, tags left out. Where a name states a change or a piece, a line headed by the entry shows the natural chain unless it says otherwise.
UniProt Q13287: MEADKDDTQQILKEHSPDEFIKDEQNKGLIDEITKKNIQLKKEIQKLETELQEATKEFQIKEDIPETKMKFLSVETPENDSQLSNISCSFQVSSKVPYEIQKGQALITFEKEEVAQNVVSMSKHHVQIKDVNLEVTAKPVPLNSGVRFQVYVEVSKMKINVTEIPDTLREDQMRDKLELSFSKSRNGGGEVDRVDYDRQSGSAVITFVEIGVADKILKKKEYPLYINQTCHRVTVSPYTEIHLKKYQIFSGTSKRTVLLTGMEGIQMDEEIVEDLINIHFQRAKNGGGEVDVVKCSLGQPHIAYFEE
UniProt Q8N8Q9: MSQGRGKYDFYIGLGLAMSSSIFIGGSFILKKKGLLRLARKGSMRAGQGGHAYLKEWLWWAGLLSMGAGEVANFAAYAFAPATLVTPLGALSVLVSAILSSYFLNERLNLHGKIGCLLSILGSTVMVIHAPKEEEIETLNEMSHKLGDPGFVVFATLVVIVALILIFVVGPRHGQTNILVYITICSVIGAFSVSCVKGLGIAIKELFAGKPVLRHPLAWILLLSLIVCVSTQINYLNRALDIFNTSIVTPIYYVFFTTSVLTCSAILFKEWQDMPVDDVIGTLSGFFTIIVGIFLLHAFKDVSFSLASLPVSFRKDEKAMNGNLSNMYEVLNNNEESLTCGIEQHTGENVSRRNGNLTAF
UniProt P16083: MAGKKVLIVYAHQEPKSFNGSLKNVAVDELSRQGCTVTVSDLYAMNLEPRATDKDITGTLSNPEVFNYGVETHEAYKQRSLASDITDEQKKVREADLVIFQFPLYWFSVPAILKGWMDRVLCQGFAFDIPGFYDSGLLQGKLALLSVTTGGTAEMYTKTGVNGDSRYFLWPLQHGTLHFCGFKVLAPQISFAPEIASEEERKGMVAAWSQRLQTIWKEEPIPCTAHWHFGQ
UniProt P48681: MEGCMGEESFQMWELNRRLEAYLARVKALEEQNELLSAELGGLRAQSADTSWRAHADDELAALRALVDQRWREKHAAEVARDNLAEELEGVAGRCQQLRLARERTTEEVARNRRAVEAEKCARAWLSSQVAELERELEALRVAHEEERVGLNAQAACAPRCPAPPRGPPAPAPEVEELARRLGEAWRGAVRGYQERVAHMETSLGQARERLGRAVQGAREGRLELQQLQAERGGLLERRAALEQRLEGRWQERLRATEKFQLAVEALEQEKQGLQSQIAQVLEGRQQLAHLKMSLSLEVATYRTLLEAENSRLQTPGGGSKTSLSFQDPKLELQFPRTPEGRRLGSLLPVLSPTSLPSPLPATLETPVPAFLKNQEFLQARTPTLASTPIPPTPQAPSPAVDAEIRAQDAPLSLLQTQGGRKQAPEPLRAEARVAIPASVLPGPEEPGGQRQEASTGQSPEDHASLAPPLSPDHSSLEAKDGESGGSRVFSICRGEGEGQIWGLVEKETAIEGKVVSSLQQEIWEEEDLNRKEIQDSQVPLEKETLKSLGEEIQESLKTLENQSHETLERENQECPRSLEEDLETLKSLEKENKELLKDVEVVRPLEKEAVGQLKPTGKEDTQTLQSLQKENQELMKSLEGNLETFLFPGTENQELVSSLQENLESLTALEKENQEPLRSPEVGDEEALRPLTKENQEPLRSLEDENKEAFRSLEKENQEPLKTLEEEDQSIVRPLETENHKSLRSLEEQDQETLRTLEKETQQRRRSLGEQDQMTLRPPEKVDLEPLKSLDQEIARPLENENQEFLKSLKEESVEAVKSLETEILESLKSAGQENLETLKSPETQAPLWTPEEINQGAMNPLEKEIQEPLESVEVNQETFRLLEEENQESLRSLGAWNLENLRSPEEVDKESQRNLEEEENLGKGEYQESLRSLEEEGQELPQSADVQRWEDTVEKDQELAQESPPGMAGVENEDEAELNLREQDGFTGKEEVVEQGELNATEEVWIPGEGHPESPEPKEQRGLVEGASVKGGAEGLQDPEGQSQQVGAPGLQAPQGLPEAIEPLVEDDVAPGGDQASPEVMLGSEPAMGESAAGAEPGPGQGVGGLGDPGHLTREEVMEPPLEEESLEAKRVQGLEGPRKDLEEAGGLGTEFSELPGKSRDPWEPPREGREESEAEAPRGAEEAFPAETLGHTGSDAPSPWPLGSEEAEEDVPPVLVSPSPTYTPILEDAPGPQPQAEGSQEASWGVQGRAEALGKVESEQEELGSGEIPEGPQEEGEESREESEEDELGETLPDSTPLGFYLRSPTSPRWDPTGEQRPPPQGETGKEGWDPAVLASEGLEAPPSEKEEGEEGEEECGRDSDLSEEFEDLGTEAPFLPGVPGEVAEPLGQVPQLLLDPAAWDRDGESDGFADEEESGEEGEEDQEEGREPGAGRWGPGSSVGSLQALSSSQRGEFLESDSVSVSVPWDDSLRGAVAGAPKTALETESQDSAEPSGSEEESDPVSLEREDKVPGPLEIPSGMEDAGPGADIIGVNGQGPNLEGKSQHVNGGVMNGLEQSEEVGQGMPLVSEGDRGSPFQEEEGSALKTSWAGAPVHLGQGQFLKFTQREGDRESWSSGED
UniProt O43847: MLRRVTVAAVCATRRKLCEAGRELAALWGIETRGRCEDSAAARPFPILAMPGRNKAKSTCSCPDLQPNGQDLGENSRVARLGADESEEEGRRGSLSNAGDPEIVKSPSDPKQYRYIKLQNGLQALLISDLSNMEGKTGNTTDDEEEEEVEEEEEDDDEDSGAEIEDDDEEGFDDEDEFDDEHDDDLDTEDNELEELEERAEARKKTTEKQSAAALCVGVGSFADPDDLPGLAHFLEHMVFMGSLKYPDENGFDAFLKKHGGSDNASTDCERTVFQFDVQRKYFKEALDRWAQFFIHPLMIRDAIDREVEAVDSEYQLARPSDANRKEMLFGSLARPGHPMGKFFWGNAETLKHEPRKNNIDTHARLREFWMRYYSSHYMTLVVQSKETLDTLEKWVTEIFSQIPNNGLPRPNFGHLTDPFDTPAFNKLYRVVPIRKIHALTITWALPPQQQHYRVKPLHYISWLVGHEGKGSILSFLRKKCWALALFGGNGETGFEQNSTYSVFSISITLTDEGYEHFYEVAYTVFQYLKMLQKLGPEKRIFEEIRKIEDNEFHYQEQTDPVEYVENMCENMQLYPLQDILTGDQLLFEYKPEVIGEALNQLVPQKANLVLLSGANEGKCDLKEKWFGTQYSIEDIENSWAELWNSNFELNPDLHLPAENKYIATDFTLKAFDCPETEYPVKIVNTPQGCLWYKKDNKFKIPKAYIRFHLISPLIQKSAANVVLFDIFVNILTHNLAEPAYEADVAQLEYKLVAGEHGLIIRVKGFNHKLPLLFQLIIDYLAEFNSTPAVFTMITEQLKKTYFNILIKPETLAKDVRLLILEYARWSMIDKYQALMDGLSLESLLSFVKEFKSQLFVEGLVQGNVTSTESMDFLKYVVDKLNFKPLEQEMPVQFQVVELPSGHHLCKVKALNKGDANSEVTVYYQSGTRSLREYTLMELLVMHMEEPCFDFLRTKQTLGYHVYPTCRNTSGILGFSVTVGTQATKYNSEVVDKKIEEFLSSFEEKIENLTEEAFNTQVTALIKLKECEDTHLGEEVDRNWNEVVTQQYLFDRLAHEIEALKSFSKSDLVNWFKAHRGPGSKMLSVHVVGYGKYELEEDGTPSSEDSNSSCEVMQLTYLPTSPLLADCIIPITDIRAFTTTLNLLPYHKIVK
UniProt Q9ULX3: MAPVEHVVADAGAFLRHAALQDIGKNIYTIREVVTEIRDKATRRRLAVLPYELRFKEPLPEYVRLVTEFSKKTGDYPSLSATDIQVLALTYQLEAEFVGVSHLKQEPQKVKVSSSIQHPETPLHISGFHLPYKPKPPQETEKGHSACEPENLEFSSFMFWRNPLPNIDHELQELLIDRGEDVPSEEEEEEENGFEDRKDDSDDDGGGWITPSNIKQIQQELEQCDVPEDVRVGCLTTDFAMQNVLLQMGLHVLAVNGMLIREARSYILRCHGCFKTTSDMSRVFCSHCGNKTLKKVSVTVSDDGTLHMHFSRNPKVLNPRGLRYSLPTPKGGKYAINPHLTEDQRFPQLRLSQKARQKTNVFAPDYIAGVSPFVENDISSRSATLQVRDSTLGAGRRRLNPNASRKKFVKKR
UniProt Q9BZQ8: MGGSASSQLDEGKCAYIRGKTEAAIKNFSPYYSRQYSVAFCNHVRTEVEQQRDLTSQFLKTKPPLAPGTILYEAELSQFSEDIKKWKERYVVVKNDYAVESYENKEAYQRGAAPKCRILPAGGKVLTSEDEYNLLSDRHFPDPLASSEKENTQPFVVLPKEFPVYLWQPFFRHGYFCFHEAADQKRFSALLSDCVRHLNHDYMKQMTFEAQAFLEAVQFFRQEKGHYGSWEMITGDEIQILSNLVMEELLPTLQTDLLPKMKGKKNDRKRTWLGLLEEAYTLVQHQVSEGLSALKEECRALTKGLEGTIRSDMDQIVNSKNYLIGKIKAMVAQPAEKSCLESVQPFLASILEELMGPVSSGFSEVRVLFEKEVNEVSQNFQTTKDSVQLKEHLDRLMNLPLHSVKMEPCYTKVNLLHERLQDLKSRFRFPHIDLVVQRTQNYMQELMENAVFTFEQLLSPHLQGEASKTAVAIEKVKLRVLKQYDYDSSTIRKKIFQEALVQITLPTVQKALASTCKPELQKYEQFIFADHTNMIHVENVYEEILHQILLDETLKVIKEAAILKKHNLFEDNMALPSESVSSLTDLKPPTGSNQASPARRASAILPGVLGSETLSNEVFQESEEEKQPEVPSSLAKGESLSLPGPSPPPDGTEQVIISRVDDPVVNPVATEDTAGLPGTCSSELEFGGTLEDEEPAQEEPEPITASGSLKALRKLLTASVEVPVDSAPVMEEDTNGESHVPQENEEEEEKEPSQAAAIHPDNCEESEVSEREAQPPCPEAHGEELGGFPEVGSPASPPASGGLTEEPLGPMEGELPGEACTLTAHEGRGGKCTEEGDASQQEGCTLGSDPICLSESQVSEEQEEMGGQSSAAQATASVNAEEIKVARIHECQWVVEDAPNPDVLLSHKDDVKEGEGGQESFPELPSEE
UniProt Q7RTP0: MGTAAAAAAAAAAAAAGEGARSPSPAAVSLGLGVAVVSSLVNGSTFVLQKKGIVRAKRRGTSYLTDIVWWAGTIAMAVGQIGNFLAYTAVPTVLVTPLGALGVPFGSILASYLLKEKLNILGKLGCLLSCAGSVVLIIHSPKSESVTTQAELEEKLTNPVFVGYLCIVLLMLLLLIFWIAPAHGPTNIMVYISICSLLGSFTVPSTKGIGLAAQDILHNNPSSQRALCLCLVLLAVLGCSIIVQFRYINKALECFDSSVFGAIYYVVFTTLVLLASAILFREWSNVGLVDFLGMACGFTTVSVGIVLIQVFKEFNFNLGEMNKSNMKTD
UniProt Q9Y3C1: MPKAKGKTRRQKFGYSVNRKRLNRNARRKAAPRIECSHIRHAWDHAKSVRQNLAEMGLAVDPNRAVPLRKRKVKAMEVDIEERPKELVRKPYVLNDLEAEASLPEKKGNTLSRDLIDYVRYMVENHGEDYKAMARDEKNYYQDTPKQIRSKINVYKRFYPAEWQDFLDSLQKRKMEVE
UniProt Q9BYG3: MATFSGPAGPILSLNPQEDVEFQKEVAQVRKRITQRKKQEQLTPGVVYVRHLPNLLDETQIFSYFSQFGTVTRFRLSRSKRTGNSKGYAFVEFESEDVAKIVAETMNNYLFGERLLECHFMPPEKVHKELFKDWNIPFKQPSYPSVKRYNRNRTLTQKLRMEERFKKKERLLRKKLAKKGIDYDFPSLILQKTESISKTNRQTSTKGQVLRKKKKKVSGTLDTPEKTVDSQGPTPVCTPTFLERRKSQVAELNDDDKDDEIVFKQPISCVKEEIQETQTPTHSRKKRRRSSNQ
UniProt Q15738: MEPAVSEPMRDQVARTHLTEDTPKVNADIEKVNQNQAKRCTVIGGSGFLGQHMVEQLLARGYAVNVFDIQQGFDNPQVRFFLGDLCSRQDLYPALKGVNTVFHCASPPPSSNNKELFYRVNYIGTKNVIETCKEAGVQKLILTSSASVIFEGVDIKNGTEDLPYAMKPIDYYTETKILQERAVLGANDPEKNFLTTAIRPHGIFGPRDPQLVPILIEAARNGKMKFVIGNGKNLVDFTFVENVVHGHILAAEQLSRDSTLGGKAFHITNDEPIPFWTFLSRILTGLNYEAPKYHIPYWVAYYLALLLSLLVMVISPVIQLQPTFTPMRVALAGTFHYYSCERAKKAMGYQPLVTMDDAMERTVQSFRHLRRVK
UniProt P22392, whole entry, looked up: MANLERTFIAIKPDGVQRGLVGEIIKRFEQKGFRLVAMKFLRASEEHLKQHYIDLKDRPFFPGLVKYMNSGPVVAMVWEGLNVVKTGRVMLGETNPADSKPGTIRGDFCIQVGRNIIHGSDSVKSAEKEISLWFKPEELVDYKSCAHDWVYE
UniProt P40261: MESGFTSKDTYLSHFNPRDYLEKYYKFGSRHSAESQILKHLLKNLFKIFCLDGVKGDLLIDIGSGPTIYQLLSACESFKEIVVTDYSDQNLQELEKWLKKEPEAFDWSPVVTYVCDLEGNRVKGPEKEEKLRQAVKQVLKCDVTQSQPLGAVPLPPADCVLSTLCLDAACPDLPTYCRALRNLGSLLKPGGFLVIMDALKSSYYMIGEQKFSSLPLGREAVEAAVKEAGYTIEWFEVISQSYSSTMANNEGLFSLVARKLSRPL

This is one part of the list.

Compound in the first assay: CC1=C(SC2=C1C(=N[C@H](C3=NN=C(N32)C)CC(=O)N)C4=CC=C(C=C4)Cl)C
In words: log2 fold change, soluble protein after heating vs DMSO (PISA); higher = thermal stabilisation; K562 cells, 10 uM, 30 min; active = over 0.2 and 3.5 SD of the protein, either way, in both replicates (recomputed). A digest of the protocol:
(§1)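 K562 cells (2×10^6 cells/mL) were treated with 10 μM compound for 30 min, and aliquots were heated for 3 min over 48°C-58°C. Pooled aliquots were extracted in PBS with 0.5% NP-40 at 4°C, and the supernatant after 21,000xg for 90 min was measured by TMTpro 16plex LC-MS/MS with channel sums equalised. Reported thermal stability, relative to control samples and from duplicates, is a log2 fold change.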
Consider NMI (UniProt Q13287), for which the log2 fold change is inactive: 0.067.
Still for that read-out and setting: with NIPA2 (UniProt Q8N8Q9) the figure was inactive: -0.017.
Regarding NEK7 (UniProt Q8TDX7), the log2 fold change is inactive: 0.048.
Same read-out and setting: in the case of NQO2 (UniProt P16083) it was inactive: 0.008; in that of NIPSNAP3B (UniProt Q9BS92), inactive: -0.031.
NR2F2 (UniProt P24468): the log2 fold change is inactive: 0.015.
Same read-out and setting: with NES (UniProt P48681) the figure was inactive: -0.234; with NRDC isoform 2 (UniProt O43847), inactive: 0.04; with NFS1 (UniProt Q9Y697), inactive: 0.076.
Same read-out and setting: in the case of NPM3 (UniProt O75607) it was inactive: -0.08.
Same read-out and setting: in the case of NHLRC2 (UniProt Q8NBF2) it was inactive: 0.038; in that of NOL12 (UniProt Q9UGY1), inactive: -0.214; in that of NOB1 (UniProt Q9ULX3), inactive: -0.033.
Turning to NIBAN1 (UniProt Q9BZQ8), the log2 fold change was inactive: 0.015.
On the same count and under the same terms, in the case of NME7 (UniProt Q9Y5B8) it was inactive: 0.098; in that of NIPA1 (UniProt Q7RTP0), inactive: 0.07; in that of NEU1 (UniProt Q99519), inactive: 0.004.
Same read-out and setting: with NPL (UniProt Q9BXD5) the figure was inactive: -0.006.
NOP16 (UniProt Q9Y3C1): the log2 fold change was inactive: -0.37.
Same read-out and setting: with NIT2 (UniProt Q9NQR4) the figure was inactive: 0.047; with NIFK (UniProt Q9BYG3), inactive: -0.104.
Still for that read-out and setting: in the case of NSDHL (UniProt Q15738) it was inactive: 0.047.
Same read-out and setting: in the case of NOMO1 (UniProt Q15155) it was inactive: -0.406; in that of NME2 isoform 2 (UniProt P22392), inactive: 0.043; in that of NELFE isoform 3 (UniProt P18615), inactive: -0.004.
Take NOP53 (UniProt Q9NZM5): the log2 fold change is inactive: -0.332.
Consider NGRN (UniProt Q9NPE2), for which the log2 fold change is inactive: 0.043.
Still for that read-out and setting: with NNMT (UniProt P40261) the figure was inactive: 0.051.

Compound in a further assay: CC1=C2C(=CC=C1)N=C(N(C2=O)C3=CC=CC=C3C)CN4C=NC5=C(N=CN=C54)N
Described as above. The method in brief:
as §1
On to NMI (UniProt Q13287), for which the log2 fold change is inactive: 0.067.
The same measure, in the same setting: in the case of NIPA2 (UniProt Q8N8Q9) it was inactive: -0.036; in that of NEK7 (UniProt Q8TDX7), inactive: 0.053.
In the case of NQO2 (UniProt P16083), the log2 fold change was inactive: -0.001.
Turning to NIPSNAP3B (UniProt Q9BS92), the log2 fold change was inactive: 0.017.
Same read-out and setting: in the case of NR2F2 (UniProt P24468) it was inactive: 0.044; in that of NES (UniProt P48681), inactive: 0.011; in that of NRDC isoform 2 (UniProt O43847), inactive: 0.037.
Still for that read-out and setting: in the case of NFS1 (UniProt Q9Y697) it was inactive: 0.053.
On to NPM3 (UniProt O75607), for which the log2 fold change was inactive: -0.087.
Still for that read-out and setting: in the case of NHLRC2 (UniProt Q8NBF2) it was inactive: 0.127; in that of NOL12 (UniProt Q9UGY1), inactive: -0.234.
Same read-out and setting: in the case of NOB1 (UniProt Q9ULX3) it was inactive: 0.048; in that of NIBAN1 (UniProt Q9BZQ8), inactive: 0.056; in that of NME7 (UniProt Q9Y5B8), inactive: 0.175.
Still for that read-out and setting: in the case of NIPA1 (UniProt Q7RTP0) it was inactive: 0.083; in that of NEU1 (UniProt Q99519), inactive: 0.047; in that of NPL (UniProt Q9BXD5), inactive: 0.067.
Take NOP16 (UniProt Q9Y3C1): the log2 fold change is inactive: -0.326.
On the same count and under the same terms, with NIT2 (UniProt Q9NQR4) the figure was inactive: 0.06; with NIFK (UniProt Q9BYG3), inactive: -0.476; with NSDHL (UniProt Q15738), inactive: 0.019.
Still for that read-out and setting: with NOMO1 (UniProt Q15155) the figure was inactive: -0.113; with NME2 isoform 2 (UniProt P22392), inactive: 0.041.
On the same count and under the same terms, in the case of NELFE isoform 3 (UniProt P18615) it was inactive: -0.002; in that of NOP53 (UniProt Q9NZM5), inactive: -0.415.
For NGRN (UniProt Q9NPE2), the log2 fold change is inactive: 0.054.
Consider NNMT (UniProt P40261), for which the log2 fold change was inactive: 0.078.

Compound in a further assay: Cc1sc2c(c1C)C(c1ccc(Cl)cc1)=N[C@@H](CC(=O)OC(C)(C)C)c1nnc(C)n1-2
The assay is described as above. The method in brief: as §1
For NMI (UniProt Q13287), the log2 fold change was inactive: 0.003.
Still for that read-out and setting: with NIPA2 (UniProt Q8N8Q9) the figure was inactive: -0.029; with NEK7 (UniProt Q8TDX7), inactive: -0.019.
Still for that read-out and setting: in the case of NQO2 (UniProt P16083) it was inactive: -0.005.
On the same count and under the same terms, with NIPSNAP3B (UniProt Q9BS92) the figure was inactive: -0.021.
For NR2F2 (UniProt P24468), the log2 fold change was inactive: -0.045.
The same measure, in the same setting: with NES (UniProt P48681) the figure was inactive: 0.044.
On to NRDC isoform 2 (UniProt O43847), for which the log2 fold change was inactive: -0.023.
Same read-out and setting: with NFS1 (UniProt Q9Y697) the figure was inactive: 0.006; with NPM3 (UniProt O75607), inactive: 0.107.
On the same count and under the same terms, with NHLRC2 (UniProt Q8NBF2) the figure was inactive: 0.009.
Consider NOL12 (UniProt Q9UGY1), for which the log2 fold change is inactive: 0.116.
Same read-out and setting: in the case of NOB1 (UniProt Q9ULX3) it was inactive: 0.067; in that of NIBAN1 (UniProt Q9BZQ8), inactive: 0.028; in that of NME7 (UniProt Q9Y5B8), inactive: 0.096.
Same read-out and setting: in the case of NIPA1 (UniProt Q7RTP0) it was inactive: -0.08; in that of NEU1 (UniProt Q99519), inactive: -0.043; in that of NPL (UniProt Q9BXD5), inactive: 0.062.
Same read-out and setting: in the case of NOP16 (UniProt Q9Y3C1) it was inactive: 0.179; in that of NIT2 (UniProt Q9NQR4), inactive: -0.025.
As for NIFK (UniProt Q9BYG3), the log2 fold change is inactive: 0.066.
The same measure, in the same setting: with NSDHL (UniProt Q15738) the figure was inactive: 0; with NOMO1 (UniProt Q15155), inactive: -0.145.
With NME2 isoform 2 (UniProt P22392), the log2 fold change is inactive: 0.
NELFE isoform 3 (UniProt P18615): the log2 fold change was inactive: -0.003.
Still for that read-out and setting: in the case of NOP53 (UniProt Q9NZM5) it was inactive: 0.353.
Still for that read-out and setting: in the case of NGRN (UniProt Q9NPE2) it was inactive: 0.058.
On the same count and under the same terms, in the case of NNMT (UniProt P40261) it was inactive: -0.009.
